The list shows a part of the results.
Key:
Assay in all cases: log2 fold change, soluble protein after heating vs DMSO (PISA); higher = thermal stabilisation; K562 lysate, 10 uM; active = over 0.2 and 3.5 SD of the protein, either way, in both replicates (recomputed)
nilotinib = compound: Cc1cn(-c2cc(NC(=O)c3ccc(C)c(Nc4nccc(-c5cccnc5)n4)c3)cc(C(F)(F)F)c2)cn1 [nilotinib]
Procedure, shortened: (§1)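 Values give the log-two fold change in thermal stability against solvent controls, from duplicates. Crude K562 extract at 1 mg/mL protein, made by dounce homogenisation in PBS pH 7.4 with 1 mM MgCl2, was treated with 10 μM compound for 30 min. After 3 min heating across 48°C-58°C, aliquots were pooled, adjusted to 0.5% NP-40 at 4°C and centrifuged at 21,000xg for 90 min. The supernatant was measured by TMTpro 16plex LC-MS/MS with channel sums equalised.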

Amino acid sequences for entries named in this document (tags omitted). A change or cut given only in a name is not applied to a line headed by its entry.
UniProt Q9Y6C9: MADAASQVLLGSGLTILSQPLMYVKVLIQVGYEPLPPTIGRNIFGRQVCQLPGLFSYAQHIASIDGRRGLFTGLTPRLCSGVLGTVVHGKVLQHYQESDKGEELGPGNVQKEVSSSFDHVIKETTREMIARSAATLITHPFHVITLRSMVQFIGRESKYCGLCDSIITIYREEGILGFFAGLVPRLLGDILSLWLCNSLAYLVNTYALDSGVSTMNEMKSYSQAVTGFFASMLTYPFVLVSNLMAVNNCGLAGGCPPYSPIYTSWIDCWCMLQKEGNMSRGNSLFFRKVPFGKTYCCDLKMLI
UniProt P00403, whole entry, looked up: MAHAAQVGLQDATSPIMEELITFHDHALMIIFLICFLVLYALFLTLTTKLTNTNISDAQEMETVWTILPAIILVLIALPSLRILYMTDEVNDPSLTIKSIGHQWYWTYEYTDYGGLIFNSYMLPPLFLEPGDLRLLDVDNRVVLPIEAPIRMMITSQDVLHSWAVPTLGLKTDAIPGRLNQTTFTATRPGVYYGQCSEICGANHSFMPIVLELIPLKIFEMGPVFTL
UniProt P26038, whole entry, looked up: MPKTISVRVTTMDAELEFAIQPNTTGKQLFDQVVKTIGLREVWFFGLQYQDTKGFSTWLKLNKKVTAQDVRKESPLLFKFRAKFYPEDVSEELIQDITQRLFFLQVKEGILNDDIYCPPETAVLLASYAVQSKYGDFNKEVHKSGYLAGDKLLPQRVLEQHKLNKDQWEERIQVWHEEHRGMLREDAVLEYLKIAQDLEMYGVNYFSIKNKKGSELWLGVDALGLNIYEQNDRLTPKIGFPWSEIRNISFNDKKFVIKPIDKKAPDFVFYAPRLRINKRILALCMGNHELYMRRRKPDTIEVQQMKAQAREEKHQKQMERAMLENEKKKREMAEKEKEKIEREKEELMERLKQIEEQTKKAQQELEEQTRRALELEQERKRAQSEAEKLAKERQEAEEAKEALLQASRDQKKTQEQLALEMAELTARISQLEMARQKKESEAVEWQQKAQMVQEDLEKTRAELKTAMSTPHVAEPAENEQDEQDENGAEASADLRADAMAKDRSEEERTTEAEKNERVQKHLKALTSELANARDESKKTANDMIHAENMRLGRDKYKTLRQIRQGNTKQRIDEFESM
UniProt Q9Y3D2: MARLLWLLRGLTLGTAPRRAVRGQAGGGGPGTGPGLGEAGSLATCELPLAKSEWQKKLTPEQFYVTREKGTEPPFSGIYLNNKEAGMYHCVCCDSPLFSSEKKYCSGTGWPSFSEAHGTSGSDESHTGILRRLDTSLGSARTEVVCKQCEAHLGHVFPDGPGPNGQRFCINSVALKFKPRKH
UniProt Q13615: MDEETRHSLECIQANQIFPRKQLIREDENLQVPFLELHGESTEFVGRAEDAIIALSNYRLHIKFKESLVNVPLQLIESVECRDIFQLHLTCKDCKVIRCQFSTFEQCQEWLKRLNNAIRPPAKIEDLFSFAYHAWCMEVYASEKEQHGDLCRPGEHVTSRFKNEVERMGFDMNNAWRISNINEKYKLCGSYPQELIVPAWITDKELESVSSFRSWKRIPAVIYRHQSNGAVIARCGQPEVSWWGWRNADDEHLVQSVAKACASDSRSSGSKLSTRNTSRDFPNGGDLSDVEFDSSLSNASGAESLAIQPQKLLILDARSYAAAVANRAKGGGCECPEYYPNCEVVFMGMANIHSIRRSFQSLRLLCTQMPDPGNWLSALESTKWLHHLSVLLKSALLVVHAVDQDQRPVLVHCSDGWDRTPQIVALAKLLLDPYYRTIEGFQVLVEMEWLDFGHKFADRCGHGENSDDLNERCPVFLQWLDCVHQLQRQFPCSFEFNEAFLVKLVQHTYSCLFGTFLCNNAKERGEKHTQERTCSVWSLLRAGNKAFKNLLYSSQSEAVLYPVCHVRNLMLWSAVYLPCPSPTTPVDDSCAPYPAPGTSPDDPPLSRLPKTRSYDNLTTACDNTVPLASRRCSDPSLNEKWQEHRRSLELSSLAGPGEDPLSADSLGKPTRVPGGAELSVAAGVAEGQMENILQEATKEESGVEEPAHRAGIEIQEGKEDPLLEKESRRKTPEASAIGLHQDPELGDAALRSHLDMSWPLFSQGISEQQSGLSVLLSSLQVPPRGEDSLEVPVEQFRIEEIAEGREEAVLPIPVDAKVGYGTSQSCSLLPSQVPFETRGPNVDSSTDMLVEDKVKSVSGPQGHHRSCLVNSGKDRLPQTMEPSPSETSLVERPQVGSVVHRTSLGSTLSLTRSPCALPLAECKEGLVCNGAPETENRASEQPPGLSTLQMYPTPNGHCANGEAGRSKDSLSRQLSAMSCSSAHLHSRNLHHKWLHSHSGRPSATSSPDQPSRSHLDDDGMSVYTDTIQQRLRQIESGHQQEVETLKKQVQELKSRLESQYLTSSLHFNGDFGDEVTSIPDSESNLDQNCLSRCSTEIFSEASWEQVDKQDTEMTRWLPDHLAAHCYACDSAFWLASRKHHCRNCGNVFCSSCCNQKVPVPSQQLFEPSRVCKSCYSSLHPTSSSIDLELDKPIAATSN
UniProt Q9C0I1: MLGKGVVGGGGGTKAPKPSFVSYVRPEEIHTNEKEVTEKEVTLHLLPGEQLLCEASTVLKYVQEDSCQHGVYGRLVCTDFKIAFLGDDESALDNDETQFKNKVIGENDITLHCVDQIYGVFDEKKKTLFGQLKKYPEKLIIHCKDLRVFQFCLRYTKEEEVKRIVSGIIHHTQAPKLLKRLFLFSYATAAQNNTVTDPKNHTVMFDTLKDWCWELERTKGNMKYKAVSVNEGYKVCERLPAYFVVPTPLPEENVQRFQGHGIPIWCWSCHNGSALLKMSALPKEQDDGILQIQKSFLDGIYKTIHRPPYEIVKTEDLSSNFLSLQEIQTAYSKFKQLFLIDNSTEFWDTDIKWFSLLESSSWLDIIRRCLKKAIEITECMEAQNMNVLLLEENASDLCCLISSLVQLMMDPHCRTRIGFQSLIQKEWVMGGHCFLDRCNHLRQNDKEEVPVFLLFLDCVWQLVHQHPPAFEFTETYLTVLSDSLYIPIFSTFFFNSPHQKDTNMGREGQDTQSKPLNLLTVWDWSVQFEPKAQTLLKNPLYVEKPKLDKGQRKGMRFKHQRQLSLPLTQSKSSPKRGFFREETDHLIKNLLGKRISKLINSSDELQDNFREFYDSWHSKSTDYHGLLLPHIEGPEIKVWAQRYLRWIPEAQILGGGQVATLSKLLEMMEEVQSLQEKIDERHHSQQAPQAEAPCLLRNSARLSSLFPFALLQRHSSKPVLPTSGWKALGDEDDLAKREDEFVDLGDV
UniProt Q9HD23: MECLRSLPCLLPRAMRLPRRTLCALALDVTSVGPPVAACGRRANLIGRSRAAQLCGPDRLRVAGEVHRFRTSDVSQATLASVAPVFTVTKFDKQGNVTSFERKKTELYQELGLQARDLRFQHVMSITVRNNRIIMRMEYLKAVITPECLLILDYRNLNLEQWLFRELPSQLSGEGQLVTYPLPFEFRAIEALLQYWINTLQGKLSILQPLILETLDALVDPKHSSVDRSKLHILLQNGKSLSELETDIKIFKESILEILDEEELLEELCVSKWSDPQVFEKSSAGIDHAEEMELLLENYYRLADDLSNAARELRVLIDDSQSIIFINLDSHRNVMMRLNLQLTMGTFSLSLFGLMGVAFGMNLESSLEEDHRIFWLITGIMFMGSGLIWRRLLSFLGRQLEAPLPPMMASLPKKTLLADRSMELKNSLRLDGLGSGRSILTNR
UniProt Q49AM1: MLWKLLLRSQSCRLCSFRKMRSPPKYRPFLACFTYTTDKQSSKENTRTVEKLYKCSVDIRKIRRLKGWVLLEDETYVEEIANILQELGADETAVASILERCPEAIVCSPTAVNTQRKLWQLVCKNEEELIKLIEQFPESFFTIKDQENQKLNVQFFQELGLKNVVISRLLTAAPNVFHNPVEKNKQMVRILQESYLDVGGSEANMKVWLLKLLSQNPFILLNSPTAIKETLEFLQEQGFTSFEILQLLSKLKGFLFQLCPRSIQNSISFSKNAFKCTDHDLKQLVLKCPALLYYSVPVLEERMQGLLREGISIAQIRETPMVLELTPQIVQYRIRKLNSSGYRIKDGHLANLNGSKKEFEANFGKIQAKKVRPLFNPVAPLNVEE
UniProt O43312: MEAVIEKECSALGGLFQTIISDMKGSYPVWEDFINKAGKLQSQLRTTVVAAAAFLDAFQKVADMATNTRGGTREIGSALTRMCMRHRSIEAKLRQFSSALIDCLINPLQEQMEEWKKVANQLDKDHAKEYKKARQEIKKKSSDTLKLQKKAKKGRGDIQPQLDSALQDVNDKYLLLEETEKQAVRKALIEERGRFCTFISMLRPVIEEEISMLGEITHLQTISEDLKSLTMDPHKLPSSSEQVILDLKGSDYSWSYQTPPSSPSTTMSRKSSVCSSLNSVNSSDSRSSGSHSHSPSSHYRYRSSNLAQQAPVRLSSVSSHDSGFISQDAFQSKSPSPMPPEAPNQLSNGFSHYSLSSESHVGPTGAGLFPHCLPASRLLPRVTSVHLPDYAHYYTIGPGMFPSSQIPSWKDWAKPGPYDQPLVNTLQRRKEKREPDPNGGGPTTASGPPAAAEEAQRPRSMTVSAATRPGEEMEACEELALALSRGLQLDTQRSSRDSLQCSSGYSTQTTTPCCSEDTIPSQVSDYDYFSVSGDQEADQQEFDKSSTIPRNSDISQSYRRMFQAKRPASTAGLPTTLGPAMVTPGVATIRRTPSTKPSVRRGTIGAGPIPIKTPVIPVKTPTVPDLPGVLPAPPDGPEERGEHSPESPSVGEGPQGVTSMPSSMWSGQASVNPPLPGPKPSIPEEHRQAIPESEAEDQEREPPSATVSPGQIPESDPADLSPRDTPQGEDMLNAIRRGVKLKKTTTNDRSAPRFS
UniProt Q8N5Y2: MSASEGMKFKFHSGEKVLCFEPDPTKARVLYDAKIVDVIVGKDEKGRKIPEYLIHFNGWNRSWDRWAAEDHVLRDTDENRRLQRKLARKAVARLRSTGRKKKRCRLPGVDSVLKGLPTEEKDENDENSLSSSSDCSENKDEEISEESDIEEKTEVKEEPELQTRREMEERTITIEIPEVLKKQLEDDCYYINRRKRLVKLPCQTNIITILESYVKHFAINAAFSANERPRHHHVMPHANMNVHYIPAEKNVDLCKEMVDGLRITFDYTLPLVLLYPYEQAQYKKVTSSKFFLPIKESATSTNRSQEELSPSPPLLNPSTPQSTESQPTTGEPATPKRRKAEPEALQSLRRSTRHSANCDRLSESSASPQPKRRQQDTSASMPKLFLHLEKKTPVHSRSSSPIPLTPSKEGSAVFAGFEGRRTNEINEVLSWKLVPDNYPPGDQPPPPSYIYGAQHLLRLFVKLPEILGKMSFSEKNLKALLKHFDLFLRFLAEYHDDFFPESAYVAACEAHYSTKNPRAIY
UniProt Q96DP5: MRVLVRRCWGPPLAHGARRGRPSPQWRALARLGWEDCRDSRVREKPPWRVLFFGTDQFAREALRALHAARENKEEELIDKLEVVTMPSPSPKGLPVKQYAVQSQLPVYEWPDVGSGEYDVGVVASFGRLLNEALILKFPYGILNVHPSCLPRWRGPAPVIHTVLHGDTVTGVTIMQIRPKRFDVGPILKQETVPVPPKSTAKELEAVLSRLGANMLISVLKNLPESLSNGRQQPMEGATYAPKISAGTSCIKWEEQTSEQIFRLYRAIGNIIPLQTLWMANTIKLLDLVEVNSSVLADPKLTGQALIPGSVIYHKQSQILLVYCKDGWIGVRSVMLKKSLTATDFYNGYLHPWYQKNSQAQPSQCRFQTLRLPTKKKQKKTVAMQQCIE
UniProt Q9Y2Z2: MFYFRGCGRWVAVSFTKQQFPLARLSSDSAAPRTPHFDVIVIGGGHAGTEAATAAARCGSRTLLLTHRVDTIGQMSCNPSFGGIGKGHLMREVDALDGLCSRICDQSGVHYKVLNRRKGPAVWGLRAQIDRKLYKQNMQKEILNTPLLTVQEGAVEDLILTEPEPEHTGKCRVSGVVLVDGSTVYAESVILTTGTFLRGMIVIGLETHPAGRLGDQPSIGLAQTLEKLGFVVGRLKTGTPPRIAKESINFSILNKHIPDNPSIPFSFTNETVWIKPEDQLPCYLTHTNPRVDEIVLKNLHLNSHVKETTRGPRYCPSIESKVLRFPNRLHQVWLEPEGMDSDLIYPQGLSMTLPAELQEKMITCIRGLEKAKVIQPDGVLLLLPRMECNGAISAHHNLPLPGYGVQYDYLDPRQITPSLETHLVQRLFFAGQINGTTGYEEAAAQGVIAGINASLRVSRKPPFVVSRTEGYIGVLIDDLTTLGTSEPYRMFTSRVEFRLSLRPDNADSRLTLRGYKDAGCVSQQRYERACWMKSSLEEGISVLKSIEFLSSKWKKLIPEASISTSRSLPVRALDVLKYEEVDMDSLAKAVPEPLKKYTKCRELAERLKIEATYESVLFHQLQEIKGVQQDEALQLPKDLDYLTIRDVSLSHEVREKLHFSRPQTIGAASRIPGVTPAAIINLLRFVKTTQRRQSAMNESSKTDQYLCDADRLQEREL

[1] = compound: Cc1nc(Nc2n[nH]c3c2CN(C(=O)N[C@H](CN(C)C)c2ccccc2)C3(C)C)c2sccc2n1
Procedure, shortened: as §1

dasatinib = compound: Cc1nc(Nc2ncc(C(=O)Nc3c(C)cccc3Cl)s2)cc(N2CCN(CCO)CC2)n1 [dasatinib]
Procedure, shortened: as §1

[2] = compound: Cc1ncc(-c2ccnc(Nc3ccc(S(C)(=O)=O)cc3)n2)n1C(C)C
Procedure, shortened: as §1

[3] = compound: Cn1cc(-c2ccc3c(c2)CCN3C(=O)Cc2cccc(C(F)(F)F)c2)c2c(N)ncnc21
Procedure, shortened: as §1

quisinostat = compound: Cn1cc(CNCC2CCN(c3ncc(C(=O)NO)cn3)CC2)c2ccccc21 [quisinostat]
Procedure, shortened: as §1

tipifarnib = compound: Cn1cncc1[C@@](N)(c1ccc(Cl)cc1)c1ccc2c(c1)c(-c1cccc(Cl)c1)cc(=O)n2C [tipifarnib]
Procedure, shortened: as §1

[4] = compound: NC(=O)Nc1cc(-c2cccc(F)c2)sc1C(=O)N[C@H]1CCCNC1
Procedure, shortened: as §1

[5] = compound: NC(=O)c1cnc(N[C@@H]2CCCC[C@@H]2N)nc1Nc1cccc(-n2nccn2)c1
Procedure, shortened: as §1

[6] = compound: NC1(c2ccc(-c3nc4ccn5c(=O)[nH]nc5c4cc3-c3ccccc3)cc2)CCC1
Procedure, shortened: as §1

[7] = compound: NCC(=O)Nc1ccc(-n2nc(C(F)(F)F)cc2-c2ccc3c(ccc4ccccc43)c2)cc1
Procedure, shortened: as §1

vorinostat = compound: O=C(CCCCCCC(=O)Nc1ccccc1)NO [vorinostat]
Procedure, shortened: as §1

silmitasertib = compound: O=C(O)c1ccc2c(c1)nc(Nc1cccc(Cl)c1)c1ccncc12 [silmitasertib]
Procedure, shortened: as §1

[8] = compound: O=C1NC(=O)C(c2cnc3ccccn23)=C1c1cn2c3c(cc(F)cc13)CN(C(=O)N1CCCCC1)CC2
Procedure, shortened: as §1

entospletinib = compound: c1cn2cc(-c3ccc4cn[nH]c4c3)nc(Nc3ccc(N4CCOCC4)cc3)c2n1 [entospletinib]
Procedure, shortened: as §1

Target | log2 fold change (nilotinib) | log2 fold change [1] | log2 fold change (dasatinib) | log2 fold change [2] | log2 fold change [3] | log2 fold change (quisinostat) | log2 fold change (tipifarnib) | log2 fold change [4] | log2 fold change [5] | log2 fold change [6] | log2 fold change [7] | log2 fold change (vorinostat) | log2 fold change (silmitasertib) | log2 fold change [8] | log2 fold change (entospletinib)
MRPL52 (UniProt Q86TS9) | inactive: 0.248 | inactive: -0.093 | inactive: -0.003 | inactive: 0.08 | inactive: -0.032 | inactive: 0.078 | inactive: -0.064 | inactive: -0.02 | inactive: 0.093 | inactive: -0.101 | inactive: -0.102 | inactive: 0.221 | inactive: -0.051 | inactive: -0.007 | inactive: -0.067
MRPS35 (UniProt P82673) | inactive: 0.053 | inactive: -0.055 | inactive: -0.026 | inactive: -0.052 | inactive: 0.019 | inactive: -0.06 | inactive: 0.025 | inactive: 0.016 | inactive: 0.009 | inactive: 0.039 | inactive: 0.05 | inactive: -0.114 | inactive: 0.065 | inactive: -0.032 | inactive: 0.05
MTCH2 (UniProt Q9Y6C9) | inactive: 0.044 | inactive: -0.005 | inactive: 0 | inactive: -0.014 | inactive: -0.024 | inactive: -0.104 | inactive: 0.018 | inactive: 0 | inactive: -0.027 | inactive: 0.001 | inactive: -0.016 | active: -0.432 | inactive: -0.001 | inactive: -0.075 | inactive: 0.026
MT-CO2 (UniProt P00403) | inactive: -0.014 | inactive: -0.104 | inactive: 0.017 | inactive: 0.065 | inactive: 0.012 | inactive: -0.023 | inactive: 0.009 | inactive: -0.016 | inactive: -0.096 | inactive: 0.033 | inactive: -0.001 | inactive: 0.177 | inactive: 0.047 | inactive: 0.025 | inactive: 0.013
MSN (UniProt P26038) | inactive: -0.012 | inactive: -0.01 | inactive: -0.012 | inactive: -0.009 | inactive: -0.009 | inactive: 0.064 | inactive: 0.03 | inactive: -0.011 | inactive: 0.006 | inactive: 0.018 | inactive: 0.005 | inactive: 0.125 | inactive: -0.004 | inactive: -0.004 | inactive: 0.009
MRPL41 (UniProt Q8IXM3) | inactive: 0.054 | inactive: -0.056 | inactive: -0.025 | inactive: -0.068 | inactive: 0.037 | inactive: 0.018 | inactive: 0.019 | inactive: 0.023 | inactive: 0.008 | inactive: 0.023 | inactive: 0.013 | inactive: 0.006 | inactive: -0.041 | inactive: -0.076 | inactive: 0.016
MSRB2 (UniProt Q9Y3D2) | inactive: 0.14 | inactive: -0.083 | inactive: 0.01 | inactive: 0.035 | inactive: -0.013 | inactive: -0.035 | inactive: 0.005 | inactive: -0.039 | inactive: 0.031 | inactive: 0.031 | inactive: -0.145 | inactive: -0.041 | inactive: 0.01 | inactive: 0.043 | inactive: -0.025
MTMR3 (UniProt Q13615) | inactive: 0.019 | inactive: 0 | inactive: 0.018 | inactive: 0.005 | inactive: 0.071 | inactive: -0.024 | inactive: -0.013 | inactive: 0.018 | inactive: 0.022 | inactive: -0.024 | inactive: 0.003 | inactive: -0.165 | inactive: 0 | inactive: 0.013 | inactive: -0.006
MRPS30 (UniProt Q9NP92) | inactive: 0.016 | inactive: -0.038 | inactive: -0.092 | inactive: -0.008 | inactive: 0.025 | inactive: -0.106 | inactive: -0.001 | inactive: 0.041 | inactive: 0.259 | inactive: -0.04 | inactive: -0.01 | inactive: -0.319 | inactive: 0.163 | inactive: 0.028 | inactive: -0.046
MTMR12 (UniProt Q9C0I1) | inactive: -0.051 | inactive: -0.004 | inactive: 0.024 | inactive: 0.001 | inactive: 0.014 | inactive: -0.02 | inactive: 0.013 | inactive: -0.013 | inactive: -0.007 | inactive: 0.008 | inactive: 0.026 | inactive: 0.024 | inactive: -0.014 | inactive: -0.025 | inactive: 0.016
MRS2 (UniProt Q9HD23) | inactive: -0.046 | inactive: 0.056 | inactive: -0.01 | inactive: 0.005 | inactive: 0.053 | inactive: 0.005 | inactive: -0.027 | inactive: 0.01 | inactive: 0.005 | inactive: 0.015 | inactive: -0.081 | inactive: 0.043 | inactive: 0.006 | inactive: -0.047 | inactive: -0.025
MRPL40 (UniProt Q9NQ50) | inactive: -0.033 | inactive: 0.007 | inactive: -0.055 | inactive: 0.012 | inactive: -0.016 | inactive: 0.018 | inactive: -0.008 | inactive: 0.017 | inactive: -0.029 | inactive: -0.011 | inactive: 0.07 | inactive: 0.105 | inactive: -0.02 | inactive: -0.041 | inactive: -0.05
MRPL53 (UniProt Q96EL3) | inactive: -0.04 | inactive: 0.026 | inactive: -0.018 | inactive: 0.015 | inactive: 0.06 | inactive: 0.02 | inactive: -0.034 | inactive: -0.041 | inactive: -0.006 | inactive: 0.031 | inactive: -0.052 | inactive: -0.119 | inactive: 0.042 | inactive: -0.024 | inactive: 0.033
MSL2 (UniProt Q9HCI7) | inactive: -0.103 | inactive: -0.002 | – | inactive: 0.127 | – | inactive: -0.033 | inactive: 0.144 | inactive: 0.008 | – | inactive: 0.024 | inactive: 0.113 | inactive: -0.106 | inactive: 0.081 | inactive: 0.041 | inactive: -0.041
MTERF2 (UniProt Q49AM1) | – | – | inactive: 0.015 | – | inactive: -0.046 | inactive: 0.144 | – | inactive: -0.196 | – | inactive: -0.094 | – | inactive: 0.113 | inactive: 0.047 | inactive: 0.159 | inactive: -0.087
MTSS1 isoform 5 (UniProt O43312) | inactive: 0.148 | inactive: 0.524 | inactive: 0.597 | inactive: -0.091 | inactive: -0.228 | inactive: 0.069 | inactive: -0.141 | inactive: -0.04 | inactive: 0.394 | – | – | – | – | inactive: -0.099 | –
MSL3 (UniProt Q8N5Y2) | inactive: -0.116 | inactive: -0.023 | inactive: 0.137 | inactive: 0.122 | inactive: -0.149 | inactive: -0.126 | inactive: 0.033 | inactive: -0.089 | – | inactive: 0.014 | inactive: 0.026 | inactive: -0.025 | inactive: 0.027 | inactive: -0.007 | inactive: 0.039
MTFMT (UniProt Q96DP5) | inactive: -0.12 | inactive: -0.008 | inactive: -0.09 | inactive: 0.335 | inactive: 0.174 | inactive: -0.078 | inactive: 0.146 | inactive: 0.098 | inactive: -0.112 | inactive: -0.021 | – | inactive: -0.199 | inactive: 0.138 | inactive: 0.103 | –
MTO1 isoform 4 (UniProt Q9Y2Z2) | inactive: -0.009 | inactive: -0.066 | inactive: -0.031 | inactive: -0.024 | inactive: 0.073 | inactive: -0.057 | inactive: 0.033 | inactive: 0.057 | – | inactive: -0.046 | inactive: 0.009 | inactive: -0.088 | inactive: -0.04 | inactive: -0.003 | inactive: 0.046

A stretch taken from the entries so far:
Target | log2 fold change (nilotinib) | log2 fold change [1] | log2 fold change (dasatinib) | log2 fold change [2] | log2 fold change [3] | log2 fold change (quisinostat) | log2 fold change (tipifarnib) | log2 fold change [4] | log2 fold change [5] | log2 fold change [6] | log2 fold change [7] | log2 fold change (vorinostat) | log2 fold change (silmitasertib) | log2 fold change [8] | log2 fold change (entospletinib)
MTERF2 (UniProt Q49AM1) | – | – | inactive: 0.015 | – | inactive: -0.046 | inactive: 0.144 | – | inactive: -0.196 | – | inactive: -0.094 | – | inactive: 0.113 | inactive: 0.047 | inactive: 0.159 | inactive: -0.087
MTSS1 isoform 5 (UniProt O43312) | inactive: 0.148 | inactive: 0.524 | inactive: 0.597 | inactive: -0.091 | inactive: -0.228 | inactive: 0.069 | inactive: -0.141 | inactive: -0.04 | inactive: 0.394 | – | – | – | – | inactive: -0.099 | –
